Test results reported in PMC5897033.

Target: T1, Arabidopsis FIGL1, full length, yeast two-hybrid fusion (Arabidopsis thaliana) (UniProt F4JEX5)
T1 sequence: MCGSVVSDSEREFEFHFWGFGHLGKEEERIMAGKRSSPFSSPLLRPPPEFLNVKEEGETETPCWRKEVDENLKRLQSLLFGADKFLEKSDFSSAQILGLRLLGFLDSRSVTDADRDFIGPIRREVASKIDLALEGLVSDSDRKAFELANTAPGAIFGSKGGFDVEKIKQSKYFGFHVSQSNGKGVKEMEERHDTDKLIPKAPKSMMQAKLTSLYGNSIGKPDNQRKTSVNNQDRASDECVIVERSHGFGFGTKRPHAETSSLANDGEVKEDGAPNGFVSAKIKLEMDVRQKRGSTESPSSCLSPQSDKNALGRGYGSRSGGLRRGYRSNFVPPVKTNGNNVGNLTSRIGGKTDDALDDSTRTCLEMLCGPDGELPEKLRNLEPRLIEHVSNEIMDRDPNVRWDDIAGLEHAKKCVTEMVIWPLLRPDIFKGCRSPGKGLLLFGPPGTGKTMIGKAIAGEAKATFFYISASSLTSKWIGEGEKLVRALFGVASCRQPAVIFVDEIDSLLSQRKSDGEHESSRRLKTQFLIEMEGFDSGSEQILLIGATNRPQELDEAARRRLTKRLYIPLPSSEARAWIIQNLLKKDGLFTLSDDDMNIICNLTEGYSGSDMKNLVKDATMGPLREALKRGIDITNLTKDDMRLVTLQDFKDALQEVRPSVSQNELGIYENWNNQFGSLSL
Test: two-hybrid; Gal4 system (Clontech), pGBKT7 (BD) and pGADT7 (AD) fusions, yeast strains AH109 and Y187; growth on -LWH (weak) and -LWHA (strong)

With “N-terminal half of Arabidopsis FLIP (1-502 amino acids), yeast two-hybrid fusion (domain or fragment)” the binding was “binds”.

These are yes or no findings as the source states them, for the method shown. Binding can be weak; no strength is given. Where a sequence is shown, tags or fusion partners need not be part of it.
